Data reported in the supplement of paper PMC12889115.
The other results are listed elsewhere or left out. Values are raw readings; no control value is given beside them.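 First-pass screen: polymyxin B was added at a level that permeabilizes the Salmonella outer membrane while sparing the inner membrane. DMSO wells, with and without polymyxin B, defined maximum growth. Because plates differed from one another, each plate's data were ranked separately and the compounds with the lowest OD600 were carried forward as hits.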

System: Salmonella enterica serovar Typhimurium SL1344
Assay: bacterial growth OD600 after 18 h with compound and polymyxin B; higher = more bacterial growth (less inhibition)
Details: 50 µM, Mueller-Hinton broth

Row | Structure (SMILES) | bacterial growth OD600 (polymyxin B 1 µg/mL) | bacterial growth OD600 (polymyxin B 0.75 µg/mL)
1 | Cc1cccc(C)c1Oc1ncccc1CNC(=O)CCc1cccnc1 | 1.11 | –
2 | O=C(c1ccc2c(c1)OCO2)C1CCCN(C(=O)C2CCOCC2)C1 (stereo not given) | 0.87 | –
3 | CCN(CC)CC(O)COc1ccc(CN(C)Cc2n[nH]c3c2CCCC3)cc1OC (stereo not given) | – | 0.738
4 | Cc1cccc(Cc2nnc(CCC(=O)N3CCC(C(O)c4cccs4)CC3)o2)c1 (stereo not given) | 0.896 | –
5 | Cc1nc(CN2C[C@H]3OC(=O)N(C4CCCC4)[C@H]3C2)c[nH]1 | – | 0.804
6 | COCCN(C)C(=O)c1csc2nc(-c3cccc(Cl)c3)cn12 | – | 0.629
7 | Cc1nc(N2CCC(C(=O)N3CCC(c4ccncc4)CC3)CC2)nc2ccc(C(C)C)cc12 | – | 0.836
8 | CCOc1ccccc1CN1CCNC(=O)C1CC(=O)NCc1cc(C)n(C)n1 (stereo not given) | 0.824 | –
9 | c1ccc(-c2ncc3c(n2)CCCC3NCc2cccnc2)cc1 (stereo not given) | – | 0.918
10 | CN(CCc1ccccn1)[C@@H]1CCN(Cc2c(F)cccc2Cl)C[C@H]1O | 0.844 | –
11 | CC(C)Cc1nc2cc(NS(=O)(=O)N(C)C)cc(C(=O)N(C)CC3CCCCO3)c2n1C (stereo not given) | – | 0.765
12 | C=CCNC(=O)N1CCC(C2CCN(Cc3cccc(F)c3F)CC2)C1 (stereo not given) | – | 0.868
13 | CC(C)CCCC1CN(C(=O)C2CCOCC2)CCO1 (stereo not given) | 0.843 | –
14 | Cc1ccc(C(=O)N2CCC(C(Cc3ccc(F)cc3F)N(C)C(=O)c3cccnc3)CC2)cc1C (stereo not given) | – | 0.831
15 | CN(c1ncccc1CNCc1ccc2c(c1)CCO2)C1CCCCC1 | 0.939 | –
16 | O=C(NCCc1cccc(C(F)(F)F)c1)c1cc(CN2CCCC(O)C2)on1 (stereo not given) | – | 0.759
17 | Cc1ccccc1C1(CC(=O)N2CCN(C3CCCCC3)CC2)CC(=O)N(Cc2cccnc2)C1=O (stereo not given) | – | 0.772
18 | Cc1c(C(=O)NCCCc2ccncc2)sc2ncnc(N3CCCCCCC3)c12 | – | 0.001
19 | Cc1oc(-c2ccc(NC(=O)Cc3ccccc3)cc2)nc1CNC(=O)c1cccc(-c2ccco2)c1 | – | 0.876
20 | COc1ccc(OC)c(-c2nc(CN3CCCCC3c3cccc(F)c3)c(C)o2)c1 (stereo not given) | 0.008 | –

In the list so far, 2 contain an NH in an aromatic ring.
Row | Structure (SMILES) | bacterial growth OD600 (polymyxin B 1 µg/mL) | bacterial growth OD600 (polymyxin B 0.75 µg/mL)
3 | CCN(CC)CC(O)COc1ccc(CN(C)Cc2n[nH]c3c2CCCC3)cc1OC (stereo not given) | – | 0.738
5 | Cc1nc(CN2C[C@H]3OC(=O)N(C4CCCC4)[C@H]3C2)c[nH]1 | – | 0.804
